Measurements published in article PMC10692205, “Pyroptosis inhibiting nanobodies block Gasdermin D pore formation” (Nature Communications, 2023).
These are yes or no findings as the source states them, for the method shown.

Key:
[1] = target: T1, GSDMD_(Δ184-194/Δ247-272) (human, UniProt P57764, Δ184-194 | Δ247-272); assay: crystal structure; GSDMD_(Δ184-194/Δ247-272) with VHH GSDMD-2 and VHH GSDMD-6; sitting drop, 20 mg/ml, 0.04 M NaCl, 25.8% PEG 400, 0.05 M Na3Cit pH 4.4, 20 °C; 1.9 Å; two heterotrimeric complexes in the asymmetric unit; both purified
T1 construct: human Gasdermin D 1-484 with residues 184-194 (in the NTD) and 247-272 (linker between the domains) deleted; also called GSDMD crystallization construct; source: E. coli Rosetta (DE3), purified (Ni-NTA, ULP1 cleavage, second Ni-NTA, SEC); not shown: His6, N-terminal, cleaved; SUMO, N-terminal, cleaved

[2] = target: T1, GSDMD_(Δ184-194/Δ247-272); assay: SEC-MALS; GSDMD_(Δ184-194/Δ247-272) mixed with VHH GSDMD-2, VHH GSDMD-6 or both at equimolar concentrations (189 µM); Superose 6 10/300 GL in GSDMD-SEC buffer; both purified

B1: GSDMD_(Δ184-194/Δ247-272) (protein, UniProt P57764)
chain: MGSAFERVVRRVVQELDHGGEFIPVTSLQSSTGFQPYCLVVRKPSSSWFWKPRYKCVNLSIKDILEPDAAEPDVQRGRSFHFYDAMDGQIQGSVELAAPGQAKIAGGAAVSDSSSTSMNVYSLSVDPNTWQTLLHERHLRQPEHKVLQQLRSRGDNVYVVTEVLQTQKEVEVTRTHKREGSGREGQGHLSQKKTVTIPSGSTLAFRVAQLVIDSDLDVLLFPDKKQRTFQPPATGLTDGVPAEGAFTEDFQGLRAEVETISKELELLDRELCQLLLEGLEGVLRDQLALRALEEALEQGQSLGPVEPLDGPAGAVLECLVLSSGMLVPELAIPVVYLLGALTMLSETQHKLLAEALESQTLLGPLELVGSLLEQSAPWQERSTMSLPPGLLGNSWGEGAPAWVLLDECGLELGEDTPHVCWEPQAQGRMCALYASLALLSGLSQEPH
- binding [1]: no binding
- binding [2]: no binding (tested: 189 µM)
